At least one peptide structure holds a part that was inferred or is arguable (an end, a ring closure or a residue). Starred links: 1 amine or outer side, 2 acyl side, 3 side chain; linkers in the order of their positions; H or OH if unused. Positions of bridges follow the written chain, without caps; N, C: chain ends. Non-standard residues stand in square brackets, D forms with d. Residues, ends and D or L forms follow the SMILES beside them. *: point of attachment. X2 = CCOCc1nc2c(NC(=O)OCCSCC(=O)*)nc3ccccc3c2n1CC(C)(C)O; 1Nal = N[C@@H](Cc1cccc2ccccc12)C(=O)O; TBMB = c1c(C[*:1])cc(C[*:3])cc1C[*:2]; Tle = CC(C)(C)[C@H](N)C(=O)O; βAla = NCCC(=O)O; Sar = CNCC(=O)O
Tests used:
human TLR8 = target: T1, human TLR8 (Homo sapiens, UniProt Q9NR97); assay: Human TLR8 receptor activation, HEK293 reporter cell line; format: cell-based; conditions: HEK293 reporter cells, 16 hours
T1 construct: host or cells: HEK293 reporter cell line
T1 sequence (Q9NR97 27-1041): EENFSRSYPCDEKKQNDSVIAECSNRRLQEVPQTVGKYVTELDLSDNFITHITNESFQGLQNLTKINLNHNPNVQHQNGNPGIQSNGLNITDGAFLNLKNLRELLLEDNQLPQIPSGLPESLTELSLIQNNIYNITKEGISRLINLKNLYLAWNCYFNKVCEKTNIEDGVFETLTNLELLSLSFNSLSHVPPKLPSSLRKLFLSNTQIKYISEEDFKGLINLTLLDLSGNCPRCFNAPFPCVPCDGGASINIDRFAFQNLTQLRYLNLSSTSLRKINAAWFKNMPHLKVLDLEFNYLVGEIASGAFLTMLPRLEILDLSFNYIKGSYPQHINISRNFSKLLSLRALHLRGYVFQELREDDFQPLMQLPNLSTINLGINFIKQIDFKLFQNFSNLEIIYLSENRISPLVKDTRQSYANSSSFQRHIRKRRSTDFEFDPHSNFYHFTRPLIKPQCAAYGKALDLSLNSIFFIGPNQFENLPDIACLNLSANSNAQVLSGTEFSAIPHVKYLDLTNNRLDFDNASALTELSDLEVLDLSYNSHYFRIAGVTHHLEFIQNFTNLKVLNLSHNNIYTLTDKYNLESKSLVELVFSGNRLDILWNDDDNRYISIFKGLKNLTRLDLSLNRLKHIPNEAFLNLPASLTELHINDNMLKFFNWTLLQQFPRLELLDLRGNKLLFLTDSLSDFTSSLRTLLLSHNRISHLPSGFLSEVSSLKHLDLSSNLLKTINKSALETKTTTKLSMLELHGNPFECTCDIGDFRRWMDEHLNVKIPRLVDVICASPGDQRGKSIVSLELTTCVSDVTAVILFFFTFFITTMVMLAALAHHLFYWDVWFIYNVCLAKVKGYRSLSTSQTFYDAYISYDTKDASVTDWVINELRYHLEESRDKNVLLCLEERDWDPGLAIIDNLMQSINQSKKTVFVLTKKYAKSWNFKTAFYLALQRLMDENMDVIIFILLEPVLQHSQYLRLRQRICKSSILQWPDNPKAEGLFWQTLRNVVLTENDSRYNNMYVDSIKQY
Method: (§1) Compounds were tested for their activity to activate human TLR7 and TLR8 receptors using HEK293 reporter cell lines engineered to express respective receptors in accordance to manufacturer's instructions (InvivoGen). […] Incubation was for 16 hours at 37° C. and […]. Absorption at 655 nm was read on […]. Data was fitted using PRISM.

Protein sequences, listed by entry. Tags and fused reporters are not part of them. Residues count along the entry.
UniProt Q9Y5R2, 156-645, species assumed: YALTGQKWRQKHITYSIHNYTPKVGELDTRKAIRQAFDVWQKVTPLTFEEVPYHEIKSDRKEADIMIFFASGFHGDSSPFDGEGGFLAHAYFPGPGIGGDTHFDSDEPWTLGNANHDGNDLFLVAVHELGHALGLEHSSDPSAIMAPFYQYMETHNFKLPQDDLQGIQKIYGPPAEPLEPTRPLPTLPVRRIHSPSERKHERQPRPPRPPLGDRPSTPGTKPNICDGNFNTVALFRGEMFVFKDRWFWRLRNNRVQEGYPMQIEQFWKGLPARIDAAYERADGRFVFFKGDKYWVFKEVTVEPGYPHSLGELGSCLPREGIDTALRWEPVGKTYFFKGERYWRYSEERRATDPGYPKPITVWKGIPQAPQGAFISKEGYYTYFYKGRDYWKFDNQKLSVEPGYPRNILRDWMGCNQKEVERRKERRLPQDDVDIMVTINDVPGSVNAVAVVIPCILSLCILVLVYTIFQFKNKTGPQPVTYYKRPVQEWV
UniProt P51511, 132-669, species assumed: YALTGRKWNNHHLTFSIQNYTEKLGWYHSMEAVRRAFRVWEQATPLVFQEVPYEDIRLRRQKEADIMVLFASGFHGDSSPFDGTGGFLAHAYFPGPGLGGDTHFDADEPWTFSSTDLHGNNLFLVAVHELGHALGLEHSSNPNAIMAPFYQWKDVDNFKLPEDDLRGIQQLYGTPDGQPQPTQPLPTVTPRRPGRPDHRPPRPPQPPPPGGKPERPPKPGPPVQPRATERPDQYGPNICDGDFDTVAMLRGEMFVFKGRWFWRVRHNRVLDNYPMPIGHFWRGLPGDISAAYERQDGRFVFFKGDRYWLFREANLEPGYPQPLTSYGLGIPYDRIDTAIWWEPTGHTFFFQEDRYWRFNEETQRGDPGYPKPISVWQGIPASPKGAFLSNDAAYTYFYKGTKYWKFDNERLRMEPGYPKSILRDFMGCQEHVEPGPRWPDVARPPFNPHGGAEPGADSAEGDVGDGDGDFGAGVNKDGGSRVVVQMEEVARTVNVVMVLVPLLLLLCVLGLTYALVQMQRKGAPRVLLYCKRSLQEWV
UniProt P14780, 94-707, species assumed: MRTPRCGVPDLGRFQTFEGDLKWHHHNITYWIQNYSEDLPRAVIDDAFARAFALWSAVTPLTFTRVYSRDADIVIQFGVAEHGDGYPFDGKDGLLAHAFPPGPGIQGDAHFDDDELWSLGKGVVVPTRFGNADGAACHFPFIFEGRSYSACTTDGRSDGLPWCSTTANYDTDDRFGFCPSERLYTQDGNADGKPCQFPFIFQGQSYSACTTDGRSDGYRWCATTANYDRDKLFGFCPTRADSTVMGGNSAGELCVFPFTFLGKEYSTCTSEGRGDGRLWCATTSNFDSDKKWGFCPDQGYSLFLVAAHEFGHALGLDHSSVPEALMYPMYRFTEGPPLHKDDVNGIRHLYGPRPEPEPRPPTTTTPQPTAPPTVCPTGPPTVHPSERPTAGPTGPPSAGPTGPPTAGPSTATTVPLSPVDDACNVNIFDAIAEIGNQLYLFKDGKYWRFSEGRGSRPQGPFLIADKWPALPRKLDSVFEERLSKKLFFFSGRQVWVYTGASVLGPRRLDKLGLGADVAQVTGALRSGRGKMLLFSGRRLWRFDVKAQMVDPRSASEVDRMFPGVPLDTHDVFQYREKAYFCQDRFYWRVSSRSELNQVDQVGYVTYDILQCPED

human TLR7 = target: T2, human TLR7 (Homo sapiens, UniProt Q9NYK1); assay: Human TLR7 receptor activation, HEK293 reporter cell line; format: cell-based; conditions: HEK293 reporter cells, 16 hours
T2 construct: host or cells: HEK293 reporter cell line
T2 sequence (Q9NYK1 27-1049): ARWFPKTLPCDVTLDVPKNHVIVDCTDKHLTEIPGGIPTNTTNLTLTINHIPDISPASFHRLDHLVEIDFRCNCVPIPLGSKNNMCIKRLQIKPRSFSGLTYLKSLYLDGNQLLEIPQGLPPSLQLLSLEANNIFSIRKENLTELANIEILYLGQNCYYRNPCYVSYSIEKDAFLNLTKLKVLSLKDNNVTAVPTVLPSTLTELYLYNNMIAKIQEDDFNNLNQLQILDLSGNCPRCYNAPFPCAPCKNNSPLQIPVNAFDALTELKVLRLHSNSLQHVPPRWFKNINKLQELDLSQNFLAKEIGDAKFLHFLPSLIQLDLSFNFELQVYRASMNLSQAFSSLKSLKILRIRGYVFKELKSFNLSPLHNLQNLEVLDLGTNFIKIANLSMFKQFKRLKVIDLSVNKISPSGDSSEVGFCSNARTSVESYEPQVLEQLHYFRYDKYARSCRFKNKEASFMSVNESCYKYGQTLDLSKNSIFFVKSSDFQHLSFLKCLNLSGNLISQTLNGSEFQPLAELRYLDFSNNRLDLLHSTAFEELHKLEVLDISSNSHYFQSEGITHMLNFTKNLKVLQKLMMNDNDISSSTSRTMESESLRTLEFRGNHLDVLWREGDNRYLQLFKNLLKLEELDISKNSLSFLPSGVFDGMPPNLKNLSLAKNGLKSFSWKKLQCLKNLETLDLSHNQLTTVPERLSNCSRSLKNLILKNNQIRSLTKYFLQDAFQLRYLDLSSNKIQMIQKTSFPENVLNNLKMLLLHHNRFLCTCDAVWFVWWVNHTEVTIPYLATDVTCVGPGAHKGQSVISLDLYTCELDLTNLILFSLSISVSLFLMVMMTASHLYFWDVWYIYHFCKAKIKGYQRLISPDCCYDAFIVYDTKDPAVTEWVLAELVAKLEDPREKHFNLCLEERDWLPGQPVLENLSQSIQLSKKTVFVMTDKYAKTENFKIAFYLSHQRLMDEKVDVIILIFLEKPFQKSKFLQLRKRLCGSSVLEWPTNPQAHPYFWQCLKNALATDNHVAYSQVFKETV
Method: as §1

[1] = system: cell migration or invasion; assay: Cell migration or invasion; format: cell-based
MMP1 [2] = target: T3, MMP1 (Homo sapiens, UniProt P03956); assay: Binding to related MMP family member
T3 sequence (P03956 100-469): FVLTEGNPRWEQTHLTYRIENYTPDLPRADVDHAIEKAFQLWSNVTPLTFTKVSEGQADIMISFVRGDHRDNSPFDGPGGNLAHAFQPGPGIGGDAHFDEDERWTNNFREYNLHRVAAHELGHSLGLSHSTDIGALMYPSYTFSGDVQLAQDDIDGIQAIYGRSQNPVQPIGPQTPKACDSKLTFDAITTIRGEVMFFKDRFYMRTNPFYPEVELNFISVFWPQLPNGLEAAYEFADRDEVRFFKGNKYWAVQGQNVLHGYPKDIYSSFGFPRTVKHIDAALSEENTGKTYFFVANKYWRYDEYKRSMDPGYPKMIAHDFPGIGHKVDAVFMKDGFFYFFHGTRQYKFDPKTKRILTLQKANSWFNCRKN

Pro-MMP1 = target: T4, Pro-MMP1 (Homo sapiens, UniProt P03956); assay: Binding to related MMP family member
T4 construct: MMP1, Pro-MMP1, MMP2
T4 sequence (P03956 20-469 limits assumed): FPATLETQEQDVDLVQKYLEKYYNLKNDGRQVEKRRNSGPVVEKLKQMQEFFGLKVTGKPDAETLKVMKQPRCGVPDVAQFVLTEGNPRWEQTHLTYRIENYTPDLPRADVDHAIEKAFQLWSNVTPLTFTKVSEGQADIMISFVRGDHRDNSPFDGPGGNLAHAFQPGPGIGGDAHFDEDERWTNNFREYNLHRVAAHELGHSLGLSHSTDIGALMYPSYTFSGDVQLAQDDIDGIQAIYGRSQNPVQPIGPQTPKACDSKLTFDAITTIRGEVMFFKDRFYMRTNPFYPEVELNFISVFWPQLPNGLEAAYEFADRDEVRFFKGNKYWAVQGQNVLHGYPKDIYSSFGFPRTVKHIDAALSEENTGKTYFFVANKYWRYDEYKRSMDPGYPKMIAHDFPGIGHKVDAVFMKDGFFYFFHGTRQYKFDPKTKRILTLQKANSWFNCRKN

MMP2 [3] = target: T5, MMP2 (Homo sapiens, UniProt P08253); assay: Binding to related MMP family member
T5 sequence (P08253 110-660): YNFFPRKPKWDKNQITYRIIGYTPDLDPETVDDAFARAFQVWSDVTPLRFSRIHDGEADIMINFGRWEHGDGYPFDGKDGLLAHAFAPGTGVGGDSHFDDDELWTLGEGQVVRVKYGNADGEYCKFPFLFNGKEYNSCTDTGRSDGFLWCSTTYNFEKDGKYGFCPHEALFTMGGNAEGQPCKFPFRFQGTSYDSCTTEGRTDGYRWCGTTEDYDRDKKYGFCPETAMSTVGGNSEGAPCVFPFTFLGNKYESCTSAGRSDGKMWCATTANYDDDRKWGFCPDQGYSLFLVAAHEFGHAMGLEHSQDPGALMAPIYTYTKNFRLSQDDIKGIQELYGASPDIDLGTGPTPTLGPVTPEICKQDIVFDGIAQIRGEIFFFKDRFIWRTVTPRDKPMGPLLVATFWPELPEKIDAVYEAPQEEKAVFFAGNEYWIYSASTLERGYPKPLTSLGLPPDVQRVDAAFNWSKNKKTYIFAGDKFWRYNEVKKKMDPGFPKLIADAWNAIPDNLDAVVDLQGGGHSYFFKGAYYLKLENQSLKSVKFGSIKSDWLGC

MMP24 = MMP24 (Homo sapiens, UniProt Q9Y5R2); assay: Binding to related MMP family member
MMP16 = MMP16 (Homo sapiens, UniProt P51512); assay: Binding to related MMP family member
catalytic domain (MT1) = assay: Binding to catalytic domain of MT1
MMP15 = MMP15 (Homo sapiens, UniProt P51511); assay: Binding to related MMP family member
MMP9 = MMP9 (Homo sapiens, UniProt P14780); assay: Effect on related MMP catalytic activity; format: biochemical
MMP1 [4] = target: T3, MMP1; assay: Effect on related MMP catalytic activity; format: biochemical
MMP2 [5] = target: T5, MMP2; assay: Effect on related MMP catalytic activity; format: biochemical
MT1 = MT1 (Homo sapiens, UniProt P50281); assay: Effect on catalytic activity of the protease in vitro; format: biochemical

Compound	hTLR8 activation potency versus naked payload resiquimod (human TLR8)	hTLR7 activation potency versus naked payload resiquimod (human TLR7)	impact on cell migration or invasion [1]	binding (MMP1 [2])	binding (Pro-MMP1)	binding (MMP2 [3])	binding (MMP24)	binding (MMP16)	binding to catalytic domain (catalytic domain (MT1))	binding (MMP15)	impact on catalytic activity (MMP9)	impact on catalytic activity (MMP1 [4])	impact on catalytic activity (MMP2 [5])	impact on catalytic activity (MT1)
CCOCc1nc2c(NC(=O)OCCSCC(=O)NCCC(=O)N(C)CC(=O)N(C)CC(=O)N(C)CC(=O)N(C)CC(=O)N(C)CC(=O)N(C)CC(=O)N(C)CC(=O)N(C)CC(=O)N(C)CC(=O)N(C)CC(=O)N[C@@H](C)C(=O)N[C@H]3CSCc4cc5cc(c4)CSC[C@H](NC(=O)[C@@H](C)NC(=O)[C@H](Cc4cccc6ccccc46)NC(=O)[C@H](CCC(=O)O)NC(=O)[C@H](CC(N)=O)NC(=O)[C@@H](C)NC3=O)C(=O)N[C@@H](CCC(=O)O)C(=O)N[C@@H](CC(=O)O)C(=O)N[C@@H](Cc3ccccc3)C(=O)N[C@@H](Cc3ccc(O)cc3)C(=O)N[C@@H](CC(=O)O)C(=O)N[C@@H](C(C)(C)C)C(=O)N[C@H](C(N)=O)CSC5)nc3ccccc3c2n1CC(C)(C)O [I-7] ({X2-βAla}-[Sar][Sar][Sar][Sar][Sar][Sar][Sar][Sar][Sar][Sar]AC[dA]NE[1Nal][dA]CEDFYD[Tle]C-NH2; linker 12-18-25 via TBMB)	considerably reduced potency or inactivity	considerably reduced potency or inactivity												
C[C@H](NC(=O)CN(C)C(=O)CN(C)C(=O)CN(C)C(=O)CN(C)C(=O)CN(C)C(=O)CN(C)C(=O)CN(C)C(=O)CN(C)C(=O)CN(C)C(=O)CN(C)C(=O)CCN)C(=O)N[C@H]1CSCc2cc3cc(c2)CSC[C@H](NC(=O)[C@@H](C)NC(=O)[C@H](Cc2cccc4ccccc24)NC(=O)[C@H](CCC(=O)O)NC(=O)[C@H](CC(N)=O)NC(=O)[C@@H](C)NC1=O)C(=O)N[C@@H](CCC(=O)O)C(=O)N[C@@H](CC(=O)O)C(=O)N[C@@H](Cc1ccccc1)C(=O)N[C@@H](Cc1ccc(O)cc1)C(=O)N[C@@H](CC(=O)O)C(=O)N[C@@H](C(C)(C)C)C(=O)N[C@H](C(N)=O)CSC3 [N241] (H-[βAla][Sar][Sar][Sar][Sar][Sar][Sar][Sar][Sar][Sar][Sar]AC[dA]NE[1Nal][dA]CEDFYD[Tle]C-NH2; linker 13-19-26 via TBMB)			no direct impact	no binding	no binding	no binding	no binding	no binding	no binding	no binding	no direct impact	no direct impact	no direct impact	no direct impact
